Assay results published in article PMC8306789.
Results are given in words; binding and its absence hold for the method and conditions named. Binding seen in cells or lysates may run through a third protein. A yes stands for co-enrichment or nearness to the bait. Other partners may have been found.

B1: Decapping protein 5 (protein, UniProt Q9C658 1-611)
chain: MAADNTGSKSSSAADSYVGSLISLTSKSEIRYEGILYNINTDESSIGLQNVRSFGTEGRKKDGPQVPPSDKVYEYILFRGTDIKDLQVKASPPVQPPASTINNDPAIIQSHYPSPMPTSGSLPSTASGSLPDISSHNGQPGQHGMGFQNAMPLYQPGGNLGSWGASPQPPMYWQGFYTPPPNGLPQLHQQSLIRPPHGLPMPNSLQQPLQYPNFNTPPPPTGSSSLQGSSLPEAPSSLFPFSTSSQMLAPSSLPFPGLPPVTLSSSLQSTLQSAPSPSLASEMAPPLLSNKAPITAPPTLPQDTNLLSFSLSTTRATEASTGLPLSNKPSVVTGPISPPQTTPLTSAPVAGVSSSISQDKPKPLLVTPGQLLQSGSSAVSLSPPSTNADKDVEVVQVSSSAGLEQSVPVTSEAQPPILPLPSSARPTQKPNGHSFPNHNGYRGRGRGRGRGAGRSHQVMKFTEDFDFTAMNEKFNKDEVWGHLGKSTTLDGDEDDDSPTVDEAELPKIEAKPVYNKDDFFDSLSSNTIDRESQNSRPRFSEQRKLDTETFGEFSRFRGGRGGRGGYGRNNGYSRGGYGGRGYGGYGGRGGGGGGYGYGGRGQGRGVSNRTT
B2: Mediator complex subunit MED36a (protein, UniProt Q94AH9 1-320)
chain: MRPPLTGSGGGFSGGRGRGGYSGGRGDGGFSGGRGGGGRGGGRGFSDRGGRGRGRGPPRGGARGGRGPAGRGGMKGGSKVIVEPHRHAGVFIAKGKEDALVTKNLVPGEAVYNEKRISVQNEDGTKTEYRVWNPFRSKLAAAILGGVDNIWIKPGAKVLYLGAASGTTVSHVSDLVGPEGCVYAVEFSHRSGRDLVNMAKKRTNVIPIIEDARHPAKYRMLVGMVDVIFSDVAQPDQARILALNASYFLKSGGHFVISIKANCIDSTVPAEAVFQTEVKKLQQEQFKPAEQVTLEPFERDHACVVGGYRMPKKPKAATAA
B3: Polyadenylate-binding protein 2 (protein, UniProt P42731 1-629)
chain: MAQVQLQGQTPNGSTAAVTSAPATSGGATATQFGNTSLYVGDLDFNVTDSQLFDAFGQMGTVVTVRVCRDLVTRRSLGYGYVNFTNPQDAARAIQELNYIPLYGKPIRVMYSHRDPSVRRSGAGNIFIKNLDESIDHKALHDTFSSFGNIVSCKVAVDSSGQSKGYGFVQYANEESAQKAIEKLNGMLLNDKQVYVGPFLRRQERDSTANKTKFTNVYVKNLAESTTDDDLKNAFGEYGKITSAVVMKDGEGKSKGFGFVNFENADDAARAVESLNGHKFDDKEWYVGRAQKKSERETELRVRYEQNLKEAADKFQSSNLYVKNLDPSISDEKLKEIFSPFGTVTSSKVMRDPNGTSKGSGFVAFATPEEATEAMSQLSGKMIESKPLYVAIAQRKEDRRVRLQAQFSQVRPVAMQPSVGPRMPVYPPGGPGIGQQMFYGQAPPAMIPPQPGYGYQQQLVPGMRPGGGPVPSFFMPMVQPQQQRPGGGRRPGGIQHSQQQNPMMQQQMHPRGRMFRYPQGRGGSGDVPPYDMGNNMPLTIGALASNLSNATPEQQRTMLGEVLYPLVEQVEAESAAKVTGMLLEMDQTEVLHLLESPEALKAKVAEAMDVLRSVAAGGATEQLASLNLS
B4: Polyadenylate-binding protein 4 (protein, UniProt O22173 1-662)
chain: MAQVQAPSSHSPPPPAVVNDGAATASATPGIGVGGGGDGVTHGALCSLYVGDLDFNVTDSQLYDYFTEVCQVVSVRVCRDAATNTSLGYGYVNYSNTDDAEKAMQKLNYSYLNGKMIRITYSSRDSSARRSGVGNLFVKNLDKSVDNKTLHEAFSGCGTIVSCKVATDHMGQSRGYGFVQFDTEDSAKNAIEKLNGKVLNDKQIFVGPFLRKEERESAADKMKFTNVYVKNLSEATTDDELKTTFGQYGSISSAVVMRDGDGKSRCFGFVNFENPEDAARAVEALNGKKFDDKEWYVGKAQKKSERELELSRRYEQGSSDGGNKFDGLNLYVKNLDDTVTDEKLRELFAEFGTITSCKVMRDPSGTSKGSGFVAFSAASEASRVLNEMNGKMVGGKPLYVALAQRKEERRAKLQAQFSQMRPAFIPGVGPRMPIFTGGAPGLGQQIFYGQGPPPIIPHQPGFGYQPQLVPGMRPAFFGGPMMQPGQQGPRPGGRRSGDGPMRHQHQQPMPYMQPQMMPRGRGYRYPSGGRNMPDGPMPGGMVPVAYDMNVMPYSQPMSAGQLATSLANATPAQQRTLLGESLYPLVDQIESEHAAKVTGMLLEMDQTEVLHLLESPEALNAKVSEALDVLRNVNQPSSQGSEGNKSGSPSDLLASLSINDHL
B5: Polyadenylate-binding protein 8 (protein, UniProt Q9FXA2 1-671)
chain: MAQIQHQGQNANGGVAVPGAAAAEAAAAAAGAAAAAAGAAQQGTTSLYVGDLDATVTDSQLFEAFTQAGQVVSVRVCRDMTTRRSLGYGYVNYATPQDASRALNELNFMALNGRAIRVMYSVRDPSLRKSGVGNIFIKNLDKSIDHKALHETFSAFGPILSCKVAVDPSGQSKGYGFVQYDTDEAAQGAIDKLNGMLLNDKQVYVGPFVHKLQRDPSGEKVKFTNVYVKNLSESLSDEELNKVFGEFGVTTSCVIMRDGEGKSKGFGFVNFENSDDAARAVDALNGKTFDDKEWFVGKAQKKSERETELKQKFEQSLKEAADKSQGSNLYVKNLDESVTDDKLREHFAPFGTITSCKVMRDPSGVSRGSGFVAFSTPEEATRAITEMNGKMIVTKPLYVALAQRKEDRKARLQAQFSQMRPVNMPPAVGPRMQMYPPGGPPMGQQLFYGQGPPAMIPQPGFGYQQQLVPGMRPGGSPMPNFFMPMMQQGQQQQQQQQQQQRPGGGRRGALPQPQQPSPMMQQQMHPRGRMYRYPQRDVNTMPGPTQNMLSVPYDVSSGGGVHHRDSPTSQPVPIVALATRLANAAPEQQRTMLGENLYPLVEQLEPESAAKVTGMLLEMDQTEVLHLLESPEALKAKVTEAMDVLRSVAQQQAGGAADQLASLSLGDNIVP
B6: THO complex protein 4B (protein, UniProt Q8L719 1-292)
chain: MSGGLDMSLDDIIKSNRKPTGSRGRGGIGGGNNTGGRGGSGSNSGPSRRFANRVGARTAPYSRPIQQQQAHDAMWQNDVFATDASVAAAFGHHQTAVVGGGSSIETGTKLYISNLDYGVSNEDIKELFSEVGDLKRYGIHYDRSGRSKGTAEVVFSRRGDALAAVKRYNNVQLDGKLMKIEIVGTNLSAPALPILATAQIPFPTNGILGNFNENFNGNFNGNFNGNFRGRGRGGFMGRPRGGGFGGGNFRGGRGARGRGGRGSGGRGRDENVSAEDLDAELDKYHKEAMETS
B7: Glycine rich RNA-binding protein GRP7 (protein, UniProt Q03250 1-176)
chain: MASGDVEYRCFVGGLAWATDDRALETAFAQYGDVIDSKIINDRETGRSRGFGFVTFKDEKAMKDAIEGMNGQDLDGRSITVNEAQSRGSGGGGGHRGGGGGGYRSGGGGGYSGGGGSYGGGGGRREGGGGYSGGGGGYSSRGGGGGSYGGGRREGGGGYGGGEGGGYGGSGGGGGW
B8: Glycine rich RNA-binding protein GRP8 (protein, UniProt Q03251 1-169)
chain: MSEVEYRCFVGGLAWATNDEDLQRTFSQFGDVIDSKIINDRESGRSRGFGFVTFKDEKAMRDAIEEMNGKELDGRVITVNEAQSRGSGGGGGGRGGSGGGYRSGGGGGYSGGGGGGYSGGGGGGYERRSGGYGSGGGGGGRGYGGGGRREGGGYGGGDGGSYGGGGGGW
B9: DEAD-box ATP-dependent RNA helicase RH3 (protein, UniProt Q8L7S8 61-748)
chain: AVATPNSVLSEEAFKSLGLSDHDEYDLDGDNNNVEADDGEELAISKLSLPQRLEESLEKRGITHLFPIQRAVLVPALQGRDIIARAKTGTGKTLAFGIPIIKRLTEEAGDYTAFRRSGRLPKFLVLAPTRELAKQVEKEIKESAPYLSTVCVYGGVSYTIQQSALTRGVDVVVGTPGRIIDLIEGRSLKLGEVEYLVLDEADQMLAVGFEEAVESILENLPTKRQSMLFSATMPTWVKKLARKYLDNPLNIDLVGDQDEKLAEGIKLYAIATTSTSKRTILSDLITVYAKGGKTIVFTQTKRDADEVSLALSNSIATEALHGDISQHQRERTLNAFRQGKFTVLVATDVASRGLDIPNVDLVIHYELPNDPETFVHRSGRTGRAGKEGSAILMHTSSQKRTVRSLERDVGCHFEFISPPTVGDLLESSADQVVATLNGVHPDSIKFFSATAQKLYEEKGTDALAAALAHLSGFSQPPSSRSLLSHEKGWVTLQLIRDPTNARGFLSARSVTGFLSDLYRTAADEVGKIFLIADDRIQGAVFDLPEEIAKELLEKDVPEGNSLSMITKLPPLQDDGPSSDNYGRFSSRDRMPRGGGGSRGSRGGRGGSSRGRDSWGGDDDRGSRRSSGGGSSWSRGGSSSRGSSDDWLIGGRSSSSSRAPSRERSFGGSCFICGKSGHRATDCPDKRGF

Target: HopA1pss-Myc (Pseudomonas syringae pv. syringae strain 61)
Assay: affinity purification with mass spectrometry; anti-Myc antibody-conjugated agarose beads on total protein extracts of Dex+ Dex:HopA1pss-Myc eds1-2 Arabidopsis plants (12 hpin); IgG-conjugated beads as non-specific binding control; lysis buffer 10% glycerol, 25 mM Tris-HCl pH 7.5, 150 mM NaCl, 10 mM DTT; 3 h at 4 °C; trypsin digestion, LC-MS/MS

| Binder | binding |
| --- | --- |
| B1 | binds |
| B2 | binds |
| B3 | binds |
| B4 | binds |
| B5 | binds |
| B6 | binds |
| B7 | binds |
| B8 | binds |
| B9 | binds |
